These are yes or no findings as the source states them, for the method shown. For some of these results: Binding calls can cover weak binding; strength is not graded here.

Amino acid sequences for entries named in this document (tags omitted). A change or cut given only in a name is not applied to a line headed by its entry.
UniProt Q980X5: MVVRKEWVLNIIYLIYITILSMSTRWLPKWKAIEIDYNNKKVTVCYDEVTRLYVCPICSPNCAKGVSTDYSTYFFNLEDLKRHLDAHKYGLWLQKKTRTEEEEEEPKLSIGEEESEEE

The target in assay [1] is GST-PBP2 (Sulfolobus solfataricus). Briefly: pull-down; GST-PBP2 on glutathione sepharose with recombinant PBP1 in the presence of recombinant PolB1; TBST, room temperature; Coomassie staining; both purified.
The target of assay [2] is MBP fused to the C-terminal tail of PBP1 (MBP-CT) (Sulfolobus solfataricus). Description: pull-down; MBP fusion protein on Amylose Resin beads with target protein in buffer A (10 mM HEPES pH 7.5, 100 mM NaCl, 1 mM DTT), room temperature 30 min; Coomassie or silver staining; both purified.
The target of assay [3] is MBP fused to the first 78 amino acids of PBP1 (MBP-PBP1ΔC) (Sulfolobus solfataricus) (UniProt Q980X5). The description is as above.
In assay [4] the target is MBP-tagged PBP1 (Sulfolobus solfataricus) (UniProt Q980X5). Described as above.
For assay [5], the target named is MBP-tagged PBP2 (Sulfolobus solfataricus). Described as above.
Assay [6] has as its target GST-PBP1 (Sulfolobus solfataricus) (UniProt Q980X5). Briefly: pull-down; GST-fusion protein on glutathione sepharose (~10 μg) and 10 μg of target in 100 μl TBST (10 mM Tris pH 8, 150 mM NaCl, 0.1% Tween 20), room temperature 30 min; Coomassie staining or western blotting; both purified.
Assay [7] addresses GST-PBP2 (Sulfolobus solfataricus). Described as above.

B1: recombinant PolB1 of Sulfolobus solfataricus (enzyme, UniProt P26811 36-882)
chain: VVRREWLEEAQENKIYFLLQVDYDGKKGKAVCKLFDKETQKIYALYDNTGHKPYFLVDLEPDKVGKIPKIVRDPSFDHIETVSKIDPYTWNKFKLTKIVVRDPLAVRRLRNDVPKAYEAHIKYFNNYMYDIGLIPGMPYVVKNGKLESVYLSLDEKDVEEIKKAFADSDEMTRQMAVDWLPIFETEIPKIKRVAIDIEVYTPVKGRIPDSQKAEFPIISIALAGSDGLKKVLVLNRNDVNEGSVKLDGISVERFNTEYELLGRFFDILLEYPIVLTFNGDDFDLPYIYFRALKLGYFPEEIPIDVAGKDEAKYLAGLHIDLYKFFFNKAVRNYAFEGKYNEYNLDAVAKALLGTSKVKVDTLISFLDVEKLIEYNFRDAEITLQLTTFNNDLTMKLIVLFSRISRLGIEELTRTEISTWVKNLYYWEHRKRNWLIPLKEEILAKSSNIRTSALIKGKGYKGAVVIDPPAGIFFNITVLDFASLYPSIIRTWNLSYETVDIQQCKKPYEVKDETGEVLHIVCMDRPGITAVITGLLRDFRVKIYKKKAKNPNNSEEQKLLYDVVQRAMKVFINATYGVFGAETFPLYAPAVAESVTALGRYVITSTVKKAREEGLTVLYGDTDSLFLLNPPKNSLENIIKWVKTTFNLDLEVDKTYKFVAFSGLKKNYFGVYQDGKVDIKGMLVKKRNTPEFVKKVFNEVKELMISINSPNDVKEIKRKIVDVVKGSYEKLKNKGYNLDELAFKVMLSKPLDAYKKNTPQHVKAALQLRPFGVNVLPRDIIYYVKVRSKDGVKPVQLAKVTEIDAEKYLEALRSTFEQILRAFGVSWDEIAATMSIDSFFSYPSKGNS
B1: the binding result in assay [1] is “binds”; in assay [2], “no binding”; in assay [3], “binds”; in assay [4] it was “binds”; in assay [5], “binds”; in assay [6], “binds”. Also, in assay [7], the binding result is “binds”.

Source of the values: publication PMC5418573.
